In the supplement of paper PMC10331698:
± gives the standard deviation of the averaged measurements. Most values lie at the level of the controls, where differences are scatter.

Columns and labels:
Assay in all cases: level (log10 ratio to DMSO vehicle control); higher = higher biomarker level / cell amount than vehicle control
[1] = compound: C=CC(=O)OCC(F)(F)C(F)(F)C(F)(F)C(F)(F)C(F)(F)C(F)(F)C(F)(F)C(F)F [1H,1H,9H-Perfluorononyl acrylate]; settings: 2200 nM; in DMSO
Method: (§1)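 BioMAP Diversity Plus panel of 12 human primary cell co-culture systems (3C, 4H, LPS, SAg, BT, BF4T, BE3C, CASM3C, HDF3CGF, KF3CT, MyoF, Mphg). Compounds were added 1 h before stimulation and left for 24 h (MyoF 48 h; BT 72 h for soluble read-outs or 6 d for IgG). Biomarkers were read by ELISA, cytotoxicity by SRB, PBMC viability and proliferation by Alamar Blue. Each well value was divided by the mean of 8 DMSO control wells on the same plate and log10 transformed; duplicate blinded samples were tested at 4 concentrations.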

[2] = compound: CCOC(=O)CC(=O)C(F)(F)C(F)(F)F [Ethyl pentafluoropropionyl acetate]; settings: 2200 nM; in DMSO
Method: as §1

[3] = compound: FC(F)(F)C(F)(F)C(F)(F)C(F)(F)C(F)(F)C(F)(F)C(F)(F)C(F)(F)CCS [2-(Perfluorooctyl)ethanthiol]; settings: in DMSO
Method: as §1

Perfluorooctanamidine = compound: N=C(N)C(F)(F)C(F)(F)C(F)(F)C(F)(F)C(F)(F)C(F)(F)C(F)(F)F [Perfluorooctanamidine]; settings: in DMSO
Method: as §1

[4] = compound: O=C(CC(=O)C(F)(F)C(F)(F)C(F)(F)F)c1cccs1 [(Perfluorobutyryl)-2-thenoylmethane]; settings: 2200 nM; in DMSO
Method: as §1

Perfluorodecanoic acid = compound: O=C(O)C(F)(F)C(F)(F)C(F)(F)C(F)(F)C(F)(F)C(F)(F)C(F)(F)C(F)(F)C(F)(F)F [Perfluorodecanoic acid]; settings: in DMSO
Method: as §1

Perfluorononanoic acid = compound: O=C(O)C(F)(F)C(F)(F)C(F)(F)C(F)(F)C(F)(F)C(F)(F)C(F)(F)C(F)(F)F [Perfluorononanoic acid]; settings: 2200 nM; in DMSO
Method: as §1

[5] = compound: O=C(O)C(F)(F)C(F)(F)C(F)(F)C(F)(F)C(F)(F)C(F)(F)C(F)(F)F [Ammonium perfluorooctanoate]; settings: 2200 nM; in DMSO
Method: as §1

Perfluorooctanoic acid = compound: O=C(O)C(F)(F)C(F)(F)C(F)(F)C(F)(F)C(F)(F)C(F)(F)C(F)(F)F [Perfluorooctanoic acid]; settings: 2200 nM; in DMSO
Method: as §1

[6] = compound: O=C(O)C(F)(F)OC(F)(F)C(F)(F)OC(F)(F)C(F)(F)OC(F)(F)C(F)(F)C(F)(F)C(F)(F)F [Perfluoro-3,6,9-trioxatridecanoic acid]; settings: 2200 nM; in DMSO
Method: as §1

[7] = compound: O=C(O)C(F)(F)OC(F)(F)C(F)(F)OC(F)(F)F [Perfluoro-3,6-dioxaheptanoic acid]; settings: 2200 nM; in DMSO
Method: as §1

[8] = compound: O=C(O)CCC(F)(C(F)(F)F)C(F)(F)F [4,4-bis(Trifluoromethyl)-4-fluoropropanoic acid]; settings: 2200 nM; in DMSO
Method: as §1

[9] = compound: OCC(F)(F)C(F)(F)C(F)(F)C(F)(F)C(F)(F)C(F)(F)C(F)(F)C(F)(F)CO [1H,1H,10H,10H-Perfluorodecane-1,10-diol]; settings: 2200 nM; in DMSO
Method: as §1

[10] = compound: OCC(F)(F)OC(F)(F)C(F)(F)OC(F)(F)C(F)(F)OC(F)(F)CO [1H,1H,11H,11H-Perfluorotetraethylene glycol]; settings: 2200 nM; in DMSO
Method: as §1

Test System	level (log10) [1]	level (log10) [2]	level (log10) ([3]; 740 nM)	level (log10) ([3]; 2200 nM)	level (log10) (Perfluorooctanamidine; 2200 nM)	level (log10) (Perfluorooctanamidine; 6700 nM)	level (log10) (Perfluorooctanamidine; 20000 nM)	level (log10) (Perfluorooctanamidine; 60000 nM)	level (log10) [4]	level (log10) (Perfluorodecanoic acid; 2200 nM)	level (log10) (Perfluorodecanoic acid; 6700 nM)	level (log10) (Perfluorodecanoic acid; 20000 nM)	level (log10) (Perfluorononanoic acid)	level (log10) [5]	level (log10) (Perfluorooctanoic acid)	level (log10) [6]	level (log10) [7]	level (log10) [8]	level (log10) [9]	level (log10) [10]
CASM3C:SRB	-0.0005 ± 0.0078	0.0025 ± 0.012	0.0045 ± 0.015	0.0055 ± 0.0064	0.0045 ± 0.012	-0.0015 ± 0.011	-0.0105 ± 0.00071	-0.018	-0.002 ± 0.0085	-0.0045 ± 0.0092	0.0055 ± 0.0064	0.0055 ± 0.0064	0.0045 ± 0.018	-0.004 ± 0.0014	0.0135 ± 0.016	-0.0055 ± 0.00071	-0.002 ± 0.017	0.0075 ± 0.011	0.0035 ± 0.0078	-0.001 ± 0.014
lMphg:CCL3/MIP-1alpha	0.004 ± 0.034	-0.011 ± 0.014	0.003 ± 0.028	0.0115 ± 0.011	-0.013 ± 0.048	-0.029 ± 0.03	0.0015 ± 0.035	0.055	0.013 ± 0.027	-0.019 ± 0.024	0.004 ± 0.013	-0.0125 ± 0.049	0.0065 ± 0.025	0 ± 0.0071	0.029 ± 0.042	-0.0155 ± 0.03	0.0045 ± 0.029	-0.0135 ± 0.03	0.0125 ± 0.061	-0.007 ± 0.02
3C:HLA-DR	-0.0015 ± 0.016	0.0155 ± 0.018	-0.013 ± 0.0057	-0.0075 ± 0.0021	0.0215 ± 0.015	0.0025 ± 0.016	-0.0295 ± 0.0064	-0.035	-0.021 ± 0.02	0.0085 ± 0.013	-0.0035 ± 0.0021	-0.006 ± 0.013	-0.0095 ± 0.016	0.0105 ± 0.016	0.003	-0.0065 ± 0.036	-0.01 ± 0.0085	-0.004 ± 0.027	-0.001	0.0035 ± 0.036
LPS:sPGE2	-0.039 ± 0.057	0.0125 ± 0.005	-0.0205 ± 0.047	0.021 ± 0.024	0.0155 ± 0.0021	-0.019 ± 0.031	-0.078 ± 0.031	-0.06	-0.046 ± 0.014	-0.01 ± 0.016	-0.017 ± 0.025	-0.052 ± 0.0071	-0.007 ± 0.0042	-0.037 ± 0.023	0.0335 ± 0.015	0.018 ± 0.0085	-0.0175 ± 0.019	-0.001 ± 0.017	-0.0055 ± 0.059	0.0235 ± 0.005
3C:CD106/VCAM-1	-0.0095 ± 0.00071	-0.0145 ± 0.0078	-0.0215 ± 0.0078	-0.021 ± 0.0028	-0.01 ± 0.0099	-0.017 ± 0.028	-0.037 ± 0.031	-0.088	-0.004 ± 0.033	-0.0015 ± 0.04	-0.0005 ± 0.012	-0.001 ± 0.021	-0.0215 ± 0.018	0.0075 ± 0.0035	-0.0335 ± 0.042	-0.02 ± 0.0028	-0.0055 ± 0.021	-0.0095 ± 0.029	-0.013 ± 0.0014	0.0015 ± 0.005
HDF3CGF:Proliferation 72hr	-0.0775 ± 0.053	-0.0505 ± 0.1	-0.014 ± 0.0014	0.0005 ± 0.00071	-0.0655 ± 0.052	-0.0255 ± 0.043	-0.0515 ± 0.1	-0.564	-0.0715 ± 0.029	0.09 ± 0.0085	0.115 ± 0.025	-0.934 ± 0.037	0.0685 ± 0.05	-0.0245 ± 0.037	0.0225 ± 0.0064	0.0985 ± 0.052	-0.0215 ± 0.029	-0.064	-0.0345 ± 0.04	-0.075 ± 0.095
